Assay results as given in the supplement of paper PMC11732987, “Enantioselective OTUD7B fragment discovery through chemoproteomics screening and high-throughput optimisation” (Communications Chemistry, 2025).
Some of the results follow. The data scatter; read single values as rough.

By UniProt entry, the sequences of proteins in these tests, tags left out. Where a name states a change or a piece, a line headed by the entry shows the natural chain unless it says otherwise.
UniProt P32856: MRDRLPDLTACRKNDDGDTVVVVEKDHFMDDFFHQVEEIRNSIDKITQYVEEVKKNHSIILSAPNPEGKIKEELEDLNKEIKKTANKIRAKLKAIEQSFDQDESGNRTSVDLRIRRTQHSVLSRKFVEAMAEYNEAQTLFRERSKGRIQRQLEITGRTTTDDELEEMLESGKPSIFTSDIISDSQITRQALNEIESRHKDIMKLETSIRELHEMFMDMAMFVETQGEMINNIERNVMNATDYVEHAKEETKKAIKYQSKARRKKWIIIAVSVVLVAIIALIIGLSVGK

Each molecule was assayed against STX2 C11 (UniProt P32856) (assay: log2 mean competition ratio of IA-DTB cysteine labelling (DMSO/compound) (log2 ratio); higher = stronger cysteine engagement by compound). Conditions: 50 µM; treatment time: 4 h; cell line lysate: HEK293T.
Procedure: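 IA-DTB competitive cysteine chemoproteomics in HEK293T RIPA lysate. Lysates were treated with compound 29 or 30 at 50 or 200 µM for 4 h, then IA-DTB (500 µM, 1 h), trypsin-digested, NeutrAvidin-enriched and analysed by diaPASEF. Competition ratio = intensity DMSO / intensity compound (n=4 treated, n=64 DMSO); binding: mean log2 CR ≥ 1 and p ≤ 0.05 plus QC filters. Target is the cysteine site.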

Structure (SMILES) | log2 mean competition ratio
O=C(CCl)N[C@@H]1CCCc2ccccc21 | -0.0949
O=C(CCl)N[C@H]1CCCc2ccccc21 | -0.365

Same assay, conditions: 200 µM; treatment time: 4 h; cell line lysate: HEK293T

Structure (SMILES) | log2 mean competition ratio
O=C(CCl)N[C@@H]1CCCc2ccccc21 | 0.468
O=C(CCl)N[C@H]1CCCc2ccccc21 | 0.277
